In PubChem BioAssay AID1439 (NMMLSC, 2008):
Screen size: about 220,000 compounds; about 770 (0.35%) were called active. Inconclusive results, whose numbers are uncertain, are shown with a selection of clear calls. Rule as the data show it: active = binding response below about 49% or above about 150%; inconclusive = no clear call, values can overlap the other calls; inactive = in between.

Protein sequences, listed by entry. Tags and fused reporters are not part of them.
UniProt P09471, whole entry, looked up: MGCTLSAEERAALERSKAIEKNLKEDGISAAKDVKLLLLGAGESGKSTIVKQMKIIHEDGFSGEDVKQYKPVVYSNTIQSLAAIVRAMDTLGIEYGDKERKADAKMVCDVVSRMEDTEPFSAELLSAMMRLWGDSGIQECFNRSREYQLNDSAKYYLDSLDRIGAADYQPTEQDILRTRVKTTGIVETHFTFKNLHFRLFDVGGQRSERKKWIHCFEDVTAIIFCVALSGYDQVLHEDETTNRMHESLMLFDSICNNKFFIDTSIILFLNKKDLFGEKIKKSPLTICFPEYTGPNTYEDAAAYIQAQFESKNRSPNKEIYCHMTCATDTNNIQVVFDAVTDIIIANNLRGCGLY

The compounds below were run against Guanine nucleotide-binding protein G(o) subunit alpha (Homo sapiens) (UniProt P09471) (assay: RGS7-Galphao binding modulators, primary screen, biochemical, multiplexed bead flow cytometry (AID 1439;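 also: fluorescent Galphao held in activated GDP-AlF4 state binding bead-coupled RGS7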)). Conditions: at 10 µM, actives lie on both sides.
With Cc1ccc(NC(=O)Cc2c(O)c3ccccc3[nH]c2=O)c(C)c1 the binding response (% of control) was inconclusive: 66.4%.
For Nc1c(C(=O)c2ccccc2)sc2nsc(SCCN3CCCC3)c12, the binding response (% of control) was inconclusive: -867%.
For COc1ccc(OCCNS(=O)(=O)c2ccc3oc4ccccc4c3c2)cc1, the binding response (% of control) was inactive: 103%.
In the case of O=C1CCCC/C1=C\Nc1ccc(S(=O)(=O)Nc2cnc3ccccc3n2)cc1, the binding response (% of control) is reported as inconclusive: 112%.
With Cc1cc(Oc2ccc(=O)n(C)n2)nc(SCC(N)=O)n1 the binding response (% of control) was inconclusive: 101%.
Cc1ccc(NC(=S)NCCCN2CCOCC2)cc1C was tested, and the binding response (% of control) was inconclusive: 85.7%.
With O=C(CCC1CCCN(C(=O)CCCc2ccccc2)C1)N1CCN(c2ccccn2)CC1 (stereo unspecified) the binding response (% of control) was inconclusive: 175%.
O=C(CCNC(=O)c1ccc([N+](=O)[O-])cc1)Nc1ccccc1N1CCOCC1 was tested, and the binding response (% of control) was inconclusive: 94.5%.
For C#CCOCCOCCOCCNc1nc(N2CCN(C(=O)[C@H](CCC(=O)O)n3cc(C(N)CO)nn3)CC2)nc(N2CCN(C(=O)[C@H](CCC(=O)O)n3cc(C(N)CC(C)C)nn3)CC2)n1 (stereo partly specified), the binding response (% of control) was inconclusive: 104%.
For Cc1nn(-c2cc(C(F)(F)F)ccn2)c(=O)o1, the binding response (% of control) was inconclusive: 36.8%.
With COc1ccccc1-c1noc(CCCC(=O)N2CCOCC2)n1 the binding response (% of control) was inconclusive: 93.9%.
With C[N+](C)(C)C(Cc1c[nH]c2ccccc12)C(=O)[O-] (stereo unspecified) the binding response (% of control) was inconclusive: 73.3%.
With COc1ccc(-c2cc(N3C(=O)Nc4ccccc4N3O)n[nH]2)c(OC)c1 the binding response (% of control) was inconclusive: 86.9%.
Cc1ccc(NC(=O)COc2ccc(Br)cn2)cc1 was tested, and the binding response (% of control) was inconclusive: 131%.
With C/C(=N\NC(=O)c1ccc(NS(=O)(=O)c2cccs2)cc1)c1ccccn1 the binding response (% of control) was inconclusive: 42.5%.
CCOC(=O)Cn1cc(/C=N/NC(=O)c2cc3ccccc3o2)c2ccccc21 was tested, and the binding response (% of control) was inconclusive: 60.9%.
O=C1c2nccnc2C(=O)N1c1ccc(C(F)(F)F)cc1 was tested, and the binding response (% of control) was inconclusive: 87.2%.
CCN1CCN(Cc2cc(=O)oc3ccc(C)cc23)CC1 was tested, and the binding response (% of control) was inconclusive: 97.5%.
For CCOC(=O)CN1CCS(=O)(=O)CC1, the binding response (% of control) was inconclusive: 90.7%.
With Cc1nonc1OC(C)CNCCNc1ccc([N+](=O)[O-])cc1 (stereo unspecified) the binding response (% of control) was inconclusive: 115%.
For Cc1cc(C)cc(N(CC(=O)NCCSCc2ccccc2)S(C)(=O)=O)c1, the binding response (% of control) was active: 180% [activator].
CC(C)C(=O)Nc1nnc(SCC(=O)NCc2ccc3c(c2)OCO3)s1 was tested, and the binding response (% of control) was inactive: 103%.
In the case of Cc1cc(NC(=O)Nc2cccc(C(F)(F)F)c2)n(C)n1, the binding response (% of control) is reported as inconclusive: 103%.
With Cc1ccc(NC(=O)COc2ccc(-c3nnco3)cc2)cc1S(=O)(=O)N1CCOCC1 the binding response (% of control) was inconclusive: 104%.
CCc1ccc(NC(=O)c2n[nH]c(=O)c3ccccc23)cc1 was tested, and the binding response (% of control) was inconclusive: -62.8%.
In the case of CN(C)C(=O)c1ccc(-c2cc(C(F)(F)F)nn2C)s1, the binding response (% of control) is reported as inconclusive: 99.2%.
O=C(Nc1ccccc1F)NC1CC1 was tested, and the binding response (% of control) was inconclusive: 102%.
COC(=O)C(=Nc1ccccc1)/C(C(=O)C(=O)N(C)c1ccccc1)=C(\O)c1ccccc1 was tested, and the binding response (% of control) was inconclusive: 117%.
With Cn1cc(Br)c(C(=O)N2CCc3ccccc32)n1 the binding response (% of control) was inactive: 97.3%.
In the case of O=C(CCc1nnc(CCCCc2ccccc2)o1)N1CCCC(O)C1 (stereo unspecified), the binding response (% of control) is reported as inconclusive: 126%.
Cc1c(N2C(=O)CSC2c2ccc([N+](=O)[O-])cc2)c(=O)n(-c2ccccc2)n1C (stereo unspecified) was tested, and the binding response (% of control) was inconclusive: 476%.
O=C(NCc1ccccc1)c1ccc(Cl)cc1 was tested, and the binding response (% of control) was inconclusive: 73.5%.
C=CCN1C=C2C(=O)C(C)(OC(=O)CCC(=O)OC)C(=O)C=C2C=C1C1CC1 (stereo unspecified) was tested, and the binding response (% of control) was inconclusive: 115%.
With Cc1cccc(C2N=C(N)Nc3nc4ccccc4n32)c1 (stereo unspecified) the binding response (% of control) was inconclusive: 77%.
In the case of O=C(Nc1cccc(Cl)c1)c1cc(N=Nc2ccc([N+](=O)[O-])cc2Cl)ccc1O, the binding response (% of control) is reported as inconclusive: 179%.
With Cc1cc(NC(=O)CN2C(=O)NC3(CCCCC3)C2=O)no1 the binding response (% of control) was inactive: 94.5%.
C=CCSc1nc(N)cc(=O)[nH]1 was tested, and the binding response (% of control) was inconclusive: 88.4%.
For OC(COc1ccc2c(c1)OCO2)CN1CCN(c2ccc(F)cc2)CC1 (stereo unspecified), the binding response (% of control) was inconclusive: 94.8%.
In the case of Cn1cnnc1-c1cccc(NC(=O)c2cc(F)c(F)cc2Cl)c1, the binding response (% of control) is reported as inactive: 102%.
For Cn1c(N)c(C(=O)CSc2nnnn2-c2ccccc2)c(=O)n(C)c1=O, the binding response (% of control) was inconclusive: 166%.
CN(C)c1ccc(NC(=S)N2CCN(c3ncc(C(F)(F)F)cc3Cl)CC2)cc1 was tested, and the binding response (% of control) was inconclusive: 160%.
With O=C(Cc1ccc(Br)cc1)Nc1ccc(Cl)cc1 the binding response (% of control) was inactive: 94.7%.
In the case of COc1ccc(-c2csc(Nc3ccccc3)[n+]2Cc2ccccc2)cc1, the binding response (% of control) is reported as inconclusive: 100%.
With COCCN(CC(=O)NC1CCCCC1)C(=O)CCCC(=O)Nc1ccccn1 the binding response (% of control) was inactive: 106%.
For COc1ccc(CC(=O)Nc2ccc(N3CCOCC3)cc2)cc1OC, the binding response (% of control) was inconclusive: 72.5%.
In the case of Cc1nc(S/C(=C/c2ccc(-c3cc(Cl)ccc3C)o2)C(=O)O)n[nH]1, the binding response (% of control) is reported as inconclusive: 88.9%.
With Fc1cccc(CSc2ccc(-c3ccco3)nn2)c1 the binding response (% of control) was inactive: 95.1%.
Cc1ccc([N+](=O)[O-])cc1N=Nc1c(-c2ccc([N+](=O)[O-])cc2)[nH]n(C(N)=S)c1=O was tested, and the binding response (% of control) was inconclusive: 104%.
In the case of O=C(N=C1N=C2C=CC=CN2Cc2ccccc21)c1ccc(S(=O)(=O)N2CCCC2)cc1, the binding response (% of control) is reported as inconclusive: 111%.
For NC(=S)Cc1ccccc1Cl, the binding response (% of control) was inconclusive: 97.7%.
In the case of O=S(=O)(c1ccccc1)C1CON(Cc2ccccc2)C1c1ccccc1 (stereo unspecified), the binding response (% of control) is reported as inconclusive: 122%.
With CN(C)S(=O)(=O)N(CC(=O)N1CCC(Cc2ccccc2)CC1)c1ccccc1 the binding response (% of control) was inconclusive: 79.3%.
For Cc1nn(-c2cccc(Cl)c2)c2nc(-c3ccncc3)cc(C(=O)N3CCOCC3)c12, the binding response (% of control) was inactive: 98.6%.
With CCOc1ccc(-n2c(=O)c3ccccc3c3ccccc3c2=O)cc1 the binding response (% of control) was inconclusive: 85.8%.
With O=C(CSc1ncccn1)NCc1cccc(Cl)c1 the binding response (% of control) was inactive: 104%.
With COc1ccc(NC(=O)COC(=O)CCNS(=O)(=O)c2ccc(Cl)cc2)cc1 the binding response (% of control) was inconclusive: 84.2%.
With CCOC(=O)CNC(=O)c1sc2nc(C)cc(C)c2c1N the binding response (% of control) was inactive: 102%.
O=C(CC(c1ccccc1)c1cc(Cl)ccc1O)N1CCCC1 (stereo unspecified) was tested, and the binding response (% of control) was inconclusive: 126%.
For O=C(c1cccc(C(F)(F)F)c1)C1CCCN(C(=O)CCn2cnnn2)C1 (stereo unspecified), the binding response (% of control) was inconclusive: 339%.
With C=CCNC(=O)c1cc2sccc2n1C the binding response (% of control) was inconclusive: 20.7%.
With CN(C)CCCNc1nc(-c2ccccc2)c2c(c1C#N)CC(C)(C)OC2 the binding response (% of control) was inconclusive: 93.3%.
In the case of CC(=O)c1cn(Cc2ccccc2)c(=O)n(Cc2ccc(F)cc2)c1=O, the binding response (% of control) is reported as inconclusive: 103%.
For Cc1ccc(NC(=O)c2ccc(OCc3c(C)noc3C)cc2)cc1, the binding response (% of control) was inconclusive: 186%.
For Cc1cc(NCc2ccccn2)n2ncc(-c3ccc(Cl)cc3)c2n1, the binding response (% of control) was inconclusive: 119%.
For Nc1ccccc1SCc1ccccc1Cl, the binding response (% of control) was inconclusive: 112%.
S=C1NC2=C(CCCC2)C2(CCCCC2)N1 was tested, and the binding response (% of control) was inactive: 101%.
For Cc1cc(=O)oc2cc(OCCSCCN3CCCC3)ccc12, the binding response (% of control) was inconclusive: 113%.
In the case of CCCCN(C(=O)CSc1nnc(-c2ccc(OC)cc2)n1C(C)C)c1c(N)n(Cc2ccccc2)c(=O)[nH]c1=O, the binding response (% of control) is reported as inactive: 98.6%.
For C=CCNC(=S)Nc1ccc(N2CCOCC2)c(S(=O)(=O)Nc2ccccc2Cl)c1, the binding response (% of control) was inconclusive: 94.5%.
In the case of COC(=O)c1c(C)oc(C)c1S(=O)(=O)NCc1ccc(OC)cc1, the binding response (% of control) is reported as inconclusive: 93.4%.
Cn1c(N)c(C(=O)COC(=O)C2CC(O)CN2S(=O)(=O)c2ccc(Cl)cc2)c(=O)n(C)c1=O (stereo unspecified) was tested, and the binding response (% of control) was inconclusive: 76.5%.
In the case of Nc1nnc(SCc2ccccc2F)s1, the binding response (% of control) is reported as inconclusive: 80.7%.
In the case of COc1c(Cl)cc(Cl)cc1CNc1ccc(S(N)(=O)=O)cc1, the binding response (% of control) is reported as inactive: 108%.
Cn1c(=O)c2c(nc(Cc3ccc(N)cc3)n2C)n(C)c1=O was tested, and the binding response (% of control) was inconclusive: 39.5%.
With CC(=O)C12C3C4C(C5C1C3C5(Br)C41OCCO1)C21OCCO1 (stereo unspecified) the binding response (% of control) was inactive: 89.9%.
COc1cccc(NC(=O)Nc2nnc(N3C(C)CCCC3C)s2)c1 (stereo unspecified) was tested, and the binding response (% of control) was inconclusive: 141%.
In the case of Nc1cc(Cl)ccc1C(=O)OCC(=O)NC1CCCCC1, the binding response (% of control) is reported as inconclusive: 114%.
For O=C1c2ccccc2-c2cccc(C(=O)N3CCN(C(=O)c4ccccc4)CC3)c21, the binding response (% of control) was inconclusive: 96.1%.
In the case of Cc1ccccc1COc1ccc2oc(C)c(C(=O)O)c2c1, the binding response (% of control) is reported as inconclusive: 107%.
For CCN(CC(=O)NC1CCS(=O)(=O)C1)S(=O)(=O)c1cccc(C(C)=O)c1 (stereo unspecified), the binding response (% of control) was inconclusive: 91.2%.
O=S(=O)(CC(O)COc1ccc(Br)cc1)c1ccccc1 (stereo unspecified) was tested, and the binding response (% of control) was inconclusive: 93.5%.
In the case of COc1cccc(NC(=O)C(=O)N2CCOCC2)c1, the binding response (% of control) is reported as inactive: 104%.
With CC1CCN(c2ccc(NC(=O)c3cccnc3)cc2)CC1 the binding response (% of control) was inactive: 101%.
With CC(C#N)Sc1nnc(Nc2ccccc2)s1 (stereo unspecified) the binding response (% of control) was inconclusive: 98.2%.
For Cc1cccc(Cn2c(SCCN3CCCCC3)nc3c2c(=O)[nH]c(=O)n3C)c1, the binding response (% of control) was inconclusive: 93.1%.
With C=CCn1cc(C(=O)c2cc(Br)ccc2O)cc(C#N)c1=O the binding response (% of control) was inconclusive: 125%.
With CC(C)CCNC(=O)c1onc(CSc2ccc(Cl)cc2)c1C(=O)NCCC(C)C the binding response (% of control) was inconclusive: 104%.
With Cc1sc2nc(CN3CCOCC3)nc(N3CCOCC3)c2c1C the binding response (% of control) was inactive: 117%.
In the case of CC(C)Sc1nc2ccsc2c(=O)[nH]1, the binding response (% of control) is reported as inconclusive: 127%.
With CC1CCN(CCC(=O)N/N=C/c2ccc([N+](=O)[O-])cc2)CC1 the binding response (% of control) was inactive: 98%.
For C=CCSc1nnc(COc2ccc(=O)n(-c3ccccc3)n2)n1CC, the binding response (% of control) was inconclusive: 119%.
